Source: US11369591B2, “Drug delivery from hydrogels” (Incept, LLC, priority 2015, dated 2022)
At least one compound was matched to its structure with a doubt left.

Test: Particle size analysis (Beckman Coulter LS 120)
Type: physicochemical
Settings: on average, sonicated 15 minutes in deionized water

CNC(=O)c1ccccc1Sc1ccc2c(/C=C/c3ccccn3)n[nH]c2c1 [Axitinib]
particle size distribution d10: 0.773 um | particle size distribution d50: 2.605 um | particle size distribution d90: 6.535 um
